The values that follow come from PubChem BioAssay AID720614 (Broad Institute, 2013).

The list shows a part of the results. Shown are side measurements of this screen, not its main read-out; they come without a call.

A short description of the test: caspase 3/7 activation in SNB19 cells, mechanism study for HRAS target identification, cell-based, luminescence, several timepoints, dry powder (AID 720614). The conditions noted are these: SNB19 (HRAS) caspase 3/7 apoptosis luminescence, multiple timepoints, measured here: timepoint 3 max caspase activation, stronger effect = higher value; at 0.26 µM unless noted.
Take `COc1cccc2c1C(=O)c1c(O)c3c(c(O)c1C2=O)C[C@@](O)(C(=O)CO)C[C@@H]3OC1C[C@H](N)[C@H](O)[C@H](C)O1` (some centres undefined): the max activity stood at 26.7% [at 0.008 µM].

Consider `O=C(NCCOCCOCCOc1ccc(N(C(=O)CCl)C(C(=O)NCCc2ccccc2)c2cccs2)cc1Cl)c1ccc(COC2C#CCCCCC2)cc1` (centres undefined), for which the max activity was found to be 16% [at 0.03 µM].

With `COc1ccc(N(C(=O)CCl)C(C(=O)NCCc2ccccc2)c2cccs2)cc1Cl` (centres undefined), the max activity came out at 44%.

Regarding `C#CCCCC(=O)NCCOCCOCCOc1ccc(N(C(=O)CCl)C(C(=O)NCCc2ccccc2)c2cccs2)cc1Cl` (centres undefined), the max activity was -10.7% [at 0.0021 µM].
